Reference: paper PMC3858272, “Construction and Application of Elastin Like Polypeptide Containing IL-4 Receptor Targeting Peptide” (PLoS ONE, 2013)
Results are given in words; binding and its absence hold for the method and conditions named. Some results given as binding are weak or reduced against the parent protein; the word gives no strength.

Sequences of proteins named here, by UniProt entry; tags and fusion partners are left off. A change or cut given only in a name is not applied to a line headed by its entry. Residues count along the entry.
UniProt P24394: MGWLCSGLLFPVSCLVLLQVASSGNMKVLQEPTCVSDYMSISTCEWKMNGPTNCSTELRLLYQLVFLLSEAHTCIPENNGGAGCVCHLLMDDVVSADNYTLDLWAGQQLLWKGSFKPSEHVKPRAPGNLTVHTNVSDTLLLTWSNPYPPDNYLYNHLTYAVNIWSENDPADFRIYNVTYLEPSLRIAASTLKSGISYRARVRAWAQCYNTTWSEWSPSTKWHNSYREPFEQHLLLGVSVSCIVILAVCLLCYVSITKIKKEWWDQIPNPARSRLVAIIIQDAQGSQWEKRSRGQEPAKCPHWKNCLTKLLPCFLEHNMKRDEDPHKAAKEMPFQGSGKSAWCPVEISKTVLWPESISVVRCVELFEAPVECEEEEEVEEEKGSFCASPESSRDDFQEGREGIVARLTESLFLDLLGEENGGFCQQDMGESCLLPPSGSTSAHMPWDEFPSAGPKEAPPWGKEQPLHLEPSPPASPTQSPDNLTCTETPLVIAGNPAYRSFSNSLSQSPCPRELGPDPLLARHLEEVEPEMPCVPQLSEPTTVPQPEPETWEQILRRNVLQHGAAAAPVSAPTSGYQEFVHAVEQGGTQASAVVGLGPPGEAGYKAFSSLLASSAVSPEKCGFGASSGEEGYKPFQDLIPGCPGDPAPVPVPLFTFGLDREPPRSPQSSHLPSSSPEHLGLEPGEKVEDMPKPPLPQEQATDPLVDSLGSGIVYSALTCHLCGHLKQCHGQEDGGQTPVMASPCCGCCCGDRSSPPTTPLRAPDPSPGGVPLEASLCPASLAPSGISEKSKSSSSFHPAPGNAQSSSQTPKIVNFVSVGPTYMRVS
IL-4 receptor on H226 and MDA-MB-231 cancer cells (human (endogenous in H226 and MDA-MB-231)): residues 26-825 of P24394
IL-4Rα (CD124): residues 26-232 of P24394

Key:
[1] = biological target: IL-4 receptor on H226 and MDA-MB-231 cancer cells (human (endogenous in H226 and MDA-MB-231)) (UniProt P24394); assay: confocal microscopy of labelled ligand on cells; 10 µM Alexa 488-labelled polymer or peptide on H226, MDA-MB-231 and H460 cells, 1 h at 4°C, washed, fixed with 4% paraformaldehyde; only the binder purified
[2] = biological target: IL-4 receptor on H226 and MDA-MB-231 cancer cells (human (endogenous in H226 and MDA-MB-231)) (UniProt P24394); assay: flow cytometry on cells; competition: cells pre-treated with anti-IL-4R antibody (R&D Systems; 1, 5 and 10 µg) at 4°C for 1 h, then 10 µM Alexa 488-labelled [AP1-V12]6 for 1 h at 4°C; methods name H226 and MDA-MB-231 cells, the legend H226 cells; only the binder purified
IL-4Rα (CD124) = IL-4Rα (CD124) (UniProt P24394); assay: SPR; IL-4Rα immobilised by amine coupling on a carboxymethyl dextran chip (2000±400 RU); AP1 peptide 3.125 to 50 µM, [AP1-V12]6 125 nM to 1 µM, [V14]6 1 µM flowed for 3 min at 25 µL/min; 25°C; kinetic fits with Scrubber 2; both purified

Binder	binding [1]	binding [2]	binding (IL-4Rα (CD124))
Alexa 488-labeled [AP1-V12]6 (designed binder, Alexa Fluor 488-C5 maleimide on the C-terminal Cys residue, as m1; The labelled form of m1, used on cells (flow cytometry, confocal microscopy); also called Alexa-labeled [AP1-V12]6; targeted [AP1-V12]6 polymer; source: E. coli BL21 (DE3), purified (four rounds of inverse transition cycling), then labelled) SGPGVGRKRLDRNGVGVPGVGVPGVGVPGVGVPGVGVPGVGVPGVGVPGVGVPGVGVPGVGVPGVGVPGVGVPGVGRKRLDRNGVGVPGVGVPGVGVPGVGVPGVGVPGVGVPGVGVPGVGVPGVGVPGVGVPGVGVPGVGVPGVGRKRLDRNGVGVPGVGVPGVGVPGVGVPGVGVPGVGVPGVGVPGVGVPGVGVPGVGVPGVGVPGVGVPGVGRKRLDRNGVGVPGVGVPGVGVPGVGVPGVGVPGVGVPGVGVPGVGVPGVGVPGVGVPGVGVPGVGVPGVGRKRLDRNGVGVPGVGVPGVGVPGVGVPGVGVPGVGVPGVGVPGVGVPGVGVPGVGVPGVGVPGVGVPGVGRKRLDRNGVGVPGVGVPGVGVPGVGVPGVGVPGVGVPGVGVPGVGVPGVGVPGVGVPGVGVPGVGVPGWPC	binds	binds	–
[V14]6 polymer, SGPG[(VGVPG)14]6WPC (protein) SGPGVGVPGVGVPGVGVPGVGVPGVGVPGVGVPGVGVPGVGVPGVGVPGVGVPGVGVPGVGVPGVGVPGVGVPGVGVPGVGVPGVGVPGVGVPGVGVPGVGVPGVGVPGVGVPGVGVPGVGVPGVGVPGVGVPGVGVPGVGVPGVGVPGVGVPGVGVPGVGVPGVGVPGVGVPGVGVPGVGVPGVGVPGVGVPGVGVPGVGVPGVGVPGVGVPGVGVPGVGVPGVGVPGVGVPGVGVPGVGVPGVGVPGVGVPGVGVPGVGVPGVGVPGVGVPGVGVPGVGVPGVGVPGVGVPGVGVPGVGVPGVGVPGVGVPGVGVPGVGVPGVGVPGVGVPGVGVPGVGVPGVGVPGVGVPGVGVPGVGVPGVGVPGVGVPGVGVPGVGVPGVGVPGVGVPGVGVPGVGVPGVGVPGVGVPGVGVPGWPC	–	–	no binding (tested: 1 µM)
